Reference: PubChem BioAssay AID504834 (National Center for Advancing Translational Sciences (NCATS), 2011)
The campaign covered roughly 320,000 compounds. About 22,000 (6.9%) were called active. Inconclusive means that the source gave no clear call. Such entries were picked first, then a sample of the others. The call rests on the fitted dose curve; in most records, active means well fitted inhibition curve with a large enough effect; inconclusive means small, poorly fitted or top-dose-only effect, or another doubt; inactive means no such curve, though single readings can be large or run the other way. Where the call is inconclusive, the potency comes from a doubtful curve fit.

experiment: Primary qHTS for delayed death inhibitors of the malarial parasite plastid, 96 hour incubation; settings: P. falciparum luciferase reporter growth; series mostly up to 28.7 µM; activity change, negative = inhibition: at the top concentration
Procedure, shortened: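 Cell-based qHTS: luciferase-tagged P. falciparum in erythrocytes (2% hematocrit, 0.05% parasitemia final) incubated with compounds for 96 hours, 37 C, 5% CO2; luciferase detection reagent then added and luminescence measured.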
On the % scale 0 is the no-effect control and ±100 the full control effect; potency means the concentration at half of the fitted maximal effect.

Compound | Potency | activity change, negative = inhibition
Cc1c2ccccc2cc[n+]1CCCS(=O)(=O)[O-] | inconclusive: 3.29 µM [inhibitor, full curve, poor fit] | 
Cc1ccccc1S(=O)(=O)Cc1ccc(C(=O)NC(C)c2ccccc2)o1 (centres undefined) | inconclusive: 11.7 µM [inhibitor, single point] | 
CCOc1ccccc1Nc1ncnc2ccccc12 |  | inactive: -19.5%
O=C(NCCc1cccc(F)c1)/C(=C/c1cccnc1)NC(=O)c1ccccc1 | inconclusive: 18.5 µM [inhibitor, single point] | 
Cc1nc2sc(C(=O)Nc3ccccc3Cc3ccccc3)c(C)c2c(=O)[nH]1 | inconclusive: 0.294 µM [inhibitor, full curve, poor fit] | 
[2H]C([2H])(CCOS(N)(=O)=O)c1ccccc1 |  | inactive: -19.9%
Cc1ccc(-n2c(SCC(N)=O)nc3c(oc4ccccc43)c2=O)cc1 |  | inactive: 45.3%
COc1ccc(CN(N=O)C2CC(=O)N(c3ccc(OC)cc3)C2=O)cc1 (centres undefined) | inconclusive: 4.15 µM [inhibitor, partial curve, poor fit] | 
CNC(=S)Nc1cc(C(=O)N2CCCC2)ccc1N1CCCC1 | active: 5.22 µM | 
COc1ccc(/C=N/NS(=O)(=O)c2ccc(C)cc2)cc1 | active: 3.29 µM | 
O=C(COc1ccc(Br)cc1CNCCc1ccccc1)NCc1ccccc1 | inconclusive: 8.28 µM [inhibitor, single point] | 
CCCn1ncc(C(=O)NC2CCCN(Cc3ccc(Cl)cc3)C2)c1C (centres undefined) | inconclusive: 10.4 µM [inhibitor, partial curve, poor fit] | 
COc1cc(-c2csc(N3CCOCC3)n2)cc(OC)c1OC | inconclusive: 11.7 µM [inhibitor, single point] | 
CCc1cc2c(=O)c(-c3ccc4c(c3)OCCO4)c(C)oc2cc1OS(C)(=O)=O | active: 4.15 µM | 
COc1ccc(NC(=O)CSCC(=O)Nc2ccc(S(=O)(=O)N3CCOCC3)cc2)cc1 |  | inactive: -5.82%
C=CCN(C(=O)CNC(=O)c1ccco1)C(C(=O)NC1CCCCC1)c1ccccc1 (centres undefined) | inconclusive: 13.1 µM [inhibitor, single point] | 
CCCOC1CCCN(C(=O)c2ccc(OC3CCN(C(=O)COC)CC3)cc2)C1 (centres undefined) | inconclusive: 18.5 µM [inhibitor, single point] | 
CCCCCCCCC1=NCCc2c1[nH]c1ccccc21 | inconclusive: 10.4 µM [inhibitor, single point] | 
CCc1ccc(OCC(=O)N/N=C2\CC(=O)c3ccccc32)cc1 | inconclusive: 3.7 µM [inhibitor, partial curve, poor fit] | 
Cc1cccc(C(=O)Nc2sc3c(c2C(=O)O)CCC3)c1 |  | inactive: 61.6%
Cc1ccccc1-c1nc(CS(=O)(=O)CC(=O)N2CCc3ccccc32)c(C)o1 | inconclusive: 18.5 µM [inhibitor, single point] | 
C[C@@H](NC(=O)c1nc[nH]c1C(=O)N[C@@H](CCCCNC(=O)OC(C)(C)C)C(=O)OC(C)(C)C)c1ccccc1 | inconclusive: 2.62 µM [inhibitor, full curve, poor fit] | 

Some of the entries so far, with tabs:
Compound	Potency	activity change, negative = inhibition
O=C(COc1ccc(Br)cc1CNCCc1ccccc1)NCc1ccccc1	inconclusive: 8.28 µM [inhibitor, single point]	
CCCn1ncc(C(=O)NC2CCCN(Cc3ccc(Cl)cc3)C2)c1C (centres undefined)	inconclusive: 10.4 µM [inhibitor, partial curve, poor fit]	

Later entries

Compound | Potency | activity change, negative = inhibition
COc1ccc(C)cc1Cn1nnc2ccccc21 |  | inactive: 33.1%
O=[N+]([O-])c1ccc(N2CCCC2)c2ncccc12 | inconclusive: 5.22 µM [inhibitor, partial curve] | 
O=C(/C=C/c1ccccn1)c1cc(Cl)cc(Cl)c1O | inconclusive: 10.4 µM [inhibitor, single point] | 
CCOC(=O)C1(CC)NC(c2ccc(OC)cc2OC)C2C(=O)N(C)C(=O)C21 (centres undefined) | inconclusive: 1.85 µM [inhibitor, full curve, poor fit] | 
CC1CCc2cc(F)ccc2N1C(=O)CSc1nnc2c3ccccc3n(C)c2n1 (centres undefined) | inconclusive: 1.85 µM [inhibitor, partial curve, poor fit] | 
CC(C)Cc1nnc(NC(=O)CCC(=O)Nc2ccccc2)s1 | inconclusive: 18.5 µM [inhibitor, single point] | 
CCOC(=O)c1cccc(NC(=O)C2CCCO2)c1 (centres undefined) | inconclusive: 18.5 µM [inhibitor, single point] | 
COc1ccc(Oc2cn[nH]c2-c2ccc(OC)cc2O)cc1 | inconclusive: 10.4 µM [inhibitor, single point] | 
C=CCn1c(CSCc2ccc(Cl)cc2)nnc1SCC(=O)NCc1ccccc1 | inconclusive: 13.1 µM [inhibitor, single point] | 
COc1ccc(N2CCN(S(=O)(=O)c3c(C)nc4sccn4c3=O)CC2)cc1 | active: 4.15 µM | 
COc1ccc(CNCC(O)(c2ccccc2)c2ccccc2)cc1OC | inconclusive: 13.1 µM [inhibitor, single point] | 
COc1ccc(NC(=O)c2cc(S(=O)(=O)Nc3ccc(OC)cc3)cs2)cc1 |  | inactive: -5.32%
Cc1ccc2nc(N3CC(=O)Nc4ccccc43)nc(-c3ccccc3)c2c1 | active: 9.28 µM | 
C/C(=N\Nc1nc(-c2ccccc2O)nc2ccccc12)c1ccccc1 | inconclusive: 16.5 µM [inhibitor, single point] | 
CC(=O)C1CCN(Cc2ccccc2)CC1 |  | inactive: 20.2%
COc1ccc([N+](=O)[O-])c(OC)c1C(=O)NC(=O)Nc1c(F)c(F)c(F)c(F)c1F | active: 4.65 µM | 
CCn1cc(/C=c2/sc3n(c2=O)C2c4ccccc4OC(C)(N=3)C2C(=O)OC)c(C)n1 (centres undefined) | inconclusive: 18.5 µM [inhibitor, single point] | 
Cc1nnc(SC(C(=O)Nc2cc(Cl)cc(Cl)c2)c2ccccc2)[nH]c1=O (centres undefined) | inconclusive: 13.1 µM [inhibitor, single point] | 
CCOC(=O)N1CCN(S(=O)(=O)c2ccc(Cl)cc2)CC1 | inconclusive: 18.5 µM [inhibitor, single point] | 
CNc1ccccc1C(C)(C)c1cc(-c2cccc(OC)c2)no1 | inconclusive: 13.1 µM [inhibitor, single point] | 
CCOc1cc(C(=O)N(CC)CC(=O)Nc2c(F)cccc2F)ccc1OCC(=O)N1CCCCC1 | inconclusive: 18.5 µM [inhibitor, single point] | 
CC(C)OCCCNC(=O)C1CCN(S(=O)(=O)N2CCCC2)CC1 | inconclusive: 10.4 µM [inhibitor, single point] | 
